The values that follow come from patent publication US20150164895A1, “DETERMINING SENSITIVITY OF CELLS TO B-RAF INHIBITOR TREATMENT BY DETECTING KRAS MUTATION AND RTK EXPRESSION LEVELS” (GENENTECH, INC., priority 2009, published 2015).

One test has as its system lung tumor xenografts. The experiment in a line: Experiment H327: growth in lung tumor xenografts after dosing with B-RAF inhibitor. The class given is in vivo, mice. The note with it: individual tumor; for Relative tumor volume: LXFA 1041/9N4; for Absolute tumor volume: (a*b*b)/2: LXFA 1041/9N4 Lung, adeno, listed as G-026887, 100 mg/kg/day. From the text:
(§1) FIGS. 10-18 depict growth in lung tumor xenografts after dosing with GDC-0879.
(§2) The data are shown below, and in FIGS. 10-14 for Experiment H331 and FIGS. 15-18 for Experiment H327.

Test [1] relates to LXFA 983/9N4 (Lung, adeno). The experiment in a line: Oncotest Exp H331: growth of LXFA 983 lung tumor xenograft after dosing with B-RAF inhibitor. The class given is in vivo, mice. The note with it: H331-2, 100 mg/kg/day, Days 0-21, individual tumors, listed as G-026887.
From the text: as §1, §2

Structures are written as SMILES. “And” between values parts separate entries of the source, which are not always exact repeats. Equal entries are not always repeated. This continues a long series; more values of the same kind are listed elsewhere.

Consider `OCCn1cc(-c2ccc3c(c2)CC/C3=N\O)c(-c2ccncc2)n1` [GDC-0879, 2-{4-[(1E)-1-(hydroxyimino)-2,3-dihydro-1H-inden-5-yl]-3-(pyridine-4-yl)-1H-pyrazol-1-yl}ethan-1-ol], for which the Relative tumor volume in the test on lung tumor xenografts (H327-2, 100 mg/kg/day po Days 0-20, study day 3, listed as G-026887) is 159.3% and 120.5% and 149.1% and 170.6% and 182.9%; in the test with lung tumor xenografts (H327-2, 100 mg/kg/day po Days 0-20, study day 7, listed as G-026887), 263.6% and 224.4% and 197.1% and 210.3% and 205.9% and 232.3%; with lung tumor xenografts (H327-2, 100 mg/kg/day po Days 0-20, study day 10, listed as G-026887) it was 423.4% and 341.8% and 306.8% and 319.0% and 398.1% and 329.2%; in the test on lung tumor xenografts (H327-2, 100 mg/kg/day po Days 0-20, study day 14, listed as G-026887), 1016.2% and 531.2% and 353.0% and 533.4% and 528.1% and 442.2%; in the test with lung tumor xenografts (H327-2, 100 mg/kg/day po Days 0-20, study day 17, listed as G-026887) it was 1519.8% and 687.7% and 584.5% and 791.4% and 587.5% and 537.8%; in the test on lung tumor xenografts (H327-2, 100 mg/kg/day po Days 0-20, study day 20, listed as G-026887), 1703.4% and 799.1% and 668.2% and 931.0% and 796.3% and 642.3%. Further, the Relative tumor volume in the test on lung tumor xenografts (H327-5, 100 mg/kg/day po Day 0, study day 0) is listed as 100.0%; in test [1] (study day 7), 293.3%; in test [1] (study day 10) it was 311.1%; in test [1] (study day 14), 382.1%; in test [1] (study day 17), 580.3%; in test [1] (study day 21), 669.2%. For the same molecule, the “Absolute tumor volume: (a*b*b)/2” value with lung tumor xenografts (H327-2, 100 mg/kg/day po Days 0-20, study day 0) is 86.2 mm3 and 75.7 mm3 and 81.1 mm3 and 117.0 mm3 and 123.0 mm3; in the test on lung tumor xenografts (H327-2, 100 mg/kg/day po Days 0-20, study day 3), 159.5 mm3 and 120.6 mm3 and 109.3 mm3 and 120.9 mm3 and 199.6 mm3 and 225.0 mm3; in the test with lung tumor xenografts (H327-2, 100 mg/kg/day po Days 0-20, study day 7), 180.3 mm3 and 164.8 mm3 and 169.9 mm3 and 178.9 mm3 and 170.6 mm3 and 240.9 mm3 and 285.8 mm3; in the test with lung tumor xenografts (H327-2, 100 mg/kg/day po Days 0-20, study day 10), 228.1 mm3 and 264.7 mm3 and 258.8 mm3 (2×) and 278.4 mm3 and 465.8 mm3 and 405.0 mm3; in the test with lung tumor xenografts (H327-2, 100 mg/kg/day po Days 0-20, study day 14), 451.2 mm3 and 635.1 mm3 and 402.2 mm3 and 320.3 mm3 and 432.7 mm3 and 617.9 mm3 and 544.0 mm3; in the test on lung tumor xenografts (H327-2, 100 mg/kg/day po Days 0-20, study day 17) it was 643.5 mm3 and 949.9 mm3 and 520.7 mm3 and 530.5 mm3 and 642.0 mm3 and 687.3 mm3 and 661.5 mm3. Also, the “Absolute tumor volume: (a*b*b)/2” value with lung tumor xenografts (H327-2, 100 mg/kg/day po Days 0-20, study day 20) was 853.1 mm3 and 1064.6 mm3 and 605.0 mm3 and 606.4 mm3 and 755.2 mm3 and 931.6 mm3 and 790.1 mm3; in test [1] (study day 7), 113.4 mm3; in test [1] (study day 10), 200.9 mm3; in test [1] (study day 14), 461.7 mm3; in test [1] (study day 17) it was 640.5 mm3; in test [1] (study day 21), 1125.0 mm3.
